Measurements taken from patent US20150141470A1, “DIAGNOSTIC AND TREATMENT METHODS IN PATIENTS HAVING OR AT RISK OF DEVELOPING RESISTANCE TO CANCER THERAPY” (The Broad Institute, Inc., priority 2012, published 2015).

Tested on: WM266.4
Assay: Single-dose cell viability of forskolin-treated cells with MAPK-pathway and HDAC inhibitors
Assay type: cell-based
Settings: sub-lethal doses; Panobinostat 10 nM, Vorinostat 1.5 μM, Entinostat 1.5 μM; 96 hrs
Experimental: Melanoma cell lines were seeded into 384-well, white-walled, clear bottom plates at the following densities; A375, 500 cells/well; SKMEL19, 1500 cells/well; SKMEL28, 1000 cells/well; UACC62, 1000 cells/well; WM266.4, 1800 cells/well; G361, 1200 cells/well, COLO-679, 2000 cells/well; SKMEL5, 2000 cells/well). Twenty-four hours after seeding, serial dilutions of the relevant compound were prepared in DMSO to 1000× stocks. Drug stocks were then diluted 1:100 into appropriate growth media and added to cells at a dilution of 1:10 (lx final), yielding drug concentrations ranging from 100 μM to 1×10-5 μM, with the final volume of DMSO not exceeding 1%. When indicated, forskolin (10 μM), IBMX (100 μM), dbcAMP (100 μM) were added concurrent with MAPK-pathway inhibitors. Cells were incubated for 96 h following addition of drug. Cell viability was measured using CellTiterGlo viability assay (Promega). Viability was calculated as a percentage of control (DMSO treated cells). A minimum of six replicates were performed for each cell line and drug combination. Data from growth-inhibition assays were modeled using a nonlinear regression curve fit with a sigmoid dose-response. […] Sigmoid-response curves that crossed the 50% inhibition point at or above 1.0 μM or 10.0 μM have GI50 values annotated as >1.0 μM or >10.0 μM, respectively. […]

O=C(CCCCCCC(=O)Nc1ccccc1)NO [Vorinostat]
sensitivity of forskolin-treated cells to MAPK-pathway inhibitors: restored sensitivity to MAPK-pathway inhibitors to levels approaching parental cells
